Not every detail of the peptide structures is certain; ends, links or a residue may be inferred. Positions of bridges follow the written chain, without caps; N, C: chain ends. Residues, ends and D or L forms follow the SMILES beside them.
Target: T1, human recombinant ETB receptor (ETBR) (Homo sapiens, UniProt P24530)
T1 construct: expressed in transfected cells; host or cells: CHO cells, stably transfected (vector pME18S-FL3); membranes prepared from them
T1 sequence (P24530 27-442): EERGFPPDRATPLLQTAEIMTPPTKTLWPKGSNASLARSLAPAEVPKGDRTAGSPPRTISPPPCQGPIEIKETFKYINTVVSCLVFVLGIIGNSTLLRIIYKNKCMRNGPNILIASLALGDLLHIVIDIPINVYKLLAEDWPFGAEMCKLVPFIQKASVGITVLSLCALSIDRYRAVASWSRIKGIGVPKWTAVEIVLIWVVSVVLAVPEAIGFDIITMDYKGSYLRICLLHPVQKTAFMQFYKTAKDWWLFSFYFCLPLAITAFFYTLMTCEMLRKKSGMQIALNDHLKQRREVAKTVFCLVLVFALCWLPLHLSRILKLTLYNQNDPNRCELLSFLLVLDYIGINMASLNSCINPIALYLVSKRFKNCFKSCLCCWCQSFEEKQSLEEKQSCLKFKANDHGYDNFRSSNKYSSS
Experiment: ET-1 Receptor Binding Assay ([125I]ET-1, CHO cell membranes expressing ETBR)
Details: inhibition of [125I]ET-1 binding, room temperature 2 hours
Experimental: Preparation of Membranes. CHO cell membranes are prepared by washing ETAR- or ETBR-transfected cells with phosphate buffered saline and centrifugation. […] The homogenates are centrifuged at 8,000×g for 10 minutes and supernatants are then centrifuged at 40,000×g for 1 hour at 4° C. The pellets are homogenized in buffer A and recentrifuged at 40,000×g for 1 hour.
The glass filters are washed three times with cold 50 mM Tris-HCl buffer containing 1 mM EDTA. The radioactivity on the washed filter is measured by using a Packard γ counter.

| SMILES | IC50 [nM] |
| --- | --- |
| CC[C@H](C)[C@H](NC(=O)[C@H](CC(N)=O)NC(=O)[C@H](Cc1ccc(O)cc1)NC(=O)[C@H](Cc1ccc(O)cc1)NC(=O)[C@H](CC(N)=O)NC(=O)[C@H](Cc1ccccc1)NC(=O)[C@H](Cc1ccccc1)NC(=O)[C@H](Cc1c[nH]c2ccccc12)NC(=O)[C@@H]1CC(=O)NCC(=O)N[C@@H](CC(N)=O)C(=O)N[C@@H](Cc2c[nH]c3ccccc23)C(=O)N[C@@H](Cc2c[nH]cn2)C(=O)NCC(=O)N[C@@H]([C@@H](C)O)C(=O)N[C@@H](C)C(=O)N2CCC[C@H]2C(=O)N1)C(=O)N[C@H](C(=O)N[C@@H](Cc1c[nH]c2ccccc12)C(=O)O)[C@@H](C)CC [Lasso 48] (GNWHGTAPDWFFNYYNIIW-OH; lactam N-9) | > 70 |
| CC[C@H](C)[C@H](NC(=O)[C@H](CC(=O)O)NC(=O)[C@H](CC(C)C)NC(=O)[C@H](Cc1c[nH]cn1)NC(=O)[C@H](C)NC(=O)[C@H](Cc1ccc(O)cc1)NC(=O)[C@H](Cc1ccc(O)cc1)NC(=O)[C@H](CC(N)=O)NC(=O)[C@H](Cc1ccccc1)NC(=O)[C@H](Cc1ccccc1)NC(=O)[C@H](Cc1c[nH]c2ccccc12)NC(=O)[C@@H]1CC(=O)NCC(=O)N[C@@H](CC(N)=O)C(=O)N[C@@H](Cc2c[nH]c3ccccc23)C(=O)N[C@@H](Cc2c[nH]cn2)C(=O)NCC(=O)N[C@@H]([C@@H](C)O)C(=O)N[C@@H](C)C(=O)N2CCC[C@H]2C(=O)N1)C(=O)N[C@H](C(=O)N[C@@H](Cc1c[nH]c2ccccc12)C(=O)O)[C@@H](C)CC [Lasso 49] (GNWHGTAPDWFFNYYAHLDIIW-OH; lactam N-9) | > 45 |
